Results are given in words; binding and its absence hold for the method and conditions named. For some of these results: Binding can be weak; no strength is given.
Experiments:
[1] = biological target: recombinant Anxa1-His6 protein; assay: plate assay, fluorescent peptide on wells coated with Anxa1-His6
[2] = biological target: recombinant Anxa1-His6 protein; assay: fluorescence plate assay: wells coated with rising amounts of Anxa1-His, labelled peptide added, washed, FI (FRU) read
[3] = biological target: recombinant Anxa1-His6 protein; assay: condition: about 250 ng/well of coated Anxa1-His (last tick label cut off); fluorescence plate assay: wells coated with rising amounts of Anxa1-His, labelled peptide added, washed, FI (FRU) read

Binder	binding [1]	binding [2]	binding [3]
IFLLWQRC (Alexa fluor 488 C5-maleimide conjugated to IF7C (the C-terminal Cys)) [IF7-A488 (chemically synthesized IF7 conjugated with fluorescent Alexa 488)]	binds	binds	
RQWLLFI (conjugated with Alexa 488; site of attachment not stated) [RQ7-A488 (Alexa 488 conjugated with RQWLLFI or reverse IF7)]	no binding		no binding

— patent US20120251453A1 (SANFORD BURNHAM MEDICAL RESEARCH INSTITUTE, published 2012)
